doi:10.1101/2025.09.23.678005
Results are given in words; binding and its absence hold for the method and conditions named. Binding seen in cells or lysates may run through a third protein. Some entries that bind do so weakly or less than the wild type.

Amino acid sequences for entries named in this document (tags omitted).
UniProt Q7Z333: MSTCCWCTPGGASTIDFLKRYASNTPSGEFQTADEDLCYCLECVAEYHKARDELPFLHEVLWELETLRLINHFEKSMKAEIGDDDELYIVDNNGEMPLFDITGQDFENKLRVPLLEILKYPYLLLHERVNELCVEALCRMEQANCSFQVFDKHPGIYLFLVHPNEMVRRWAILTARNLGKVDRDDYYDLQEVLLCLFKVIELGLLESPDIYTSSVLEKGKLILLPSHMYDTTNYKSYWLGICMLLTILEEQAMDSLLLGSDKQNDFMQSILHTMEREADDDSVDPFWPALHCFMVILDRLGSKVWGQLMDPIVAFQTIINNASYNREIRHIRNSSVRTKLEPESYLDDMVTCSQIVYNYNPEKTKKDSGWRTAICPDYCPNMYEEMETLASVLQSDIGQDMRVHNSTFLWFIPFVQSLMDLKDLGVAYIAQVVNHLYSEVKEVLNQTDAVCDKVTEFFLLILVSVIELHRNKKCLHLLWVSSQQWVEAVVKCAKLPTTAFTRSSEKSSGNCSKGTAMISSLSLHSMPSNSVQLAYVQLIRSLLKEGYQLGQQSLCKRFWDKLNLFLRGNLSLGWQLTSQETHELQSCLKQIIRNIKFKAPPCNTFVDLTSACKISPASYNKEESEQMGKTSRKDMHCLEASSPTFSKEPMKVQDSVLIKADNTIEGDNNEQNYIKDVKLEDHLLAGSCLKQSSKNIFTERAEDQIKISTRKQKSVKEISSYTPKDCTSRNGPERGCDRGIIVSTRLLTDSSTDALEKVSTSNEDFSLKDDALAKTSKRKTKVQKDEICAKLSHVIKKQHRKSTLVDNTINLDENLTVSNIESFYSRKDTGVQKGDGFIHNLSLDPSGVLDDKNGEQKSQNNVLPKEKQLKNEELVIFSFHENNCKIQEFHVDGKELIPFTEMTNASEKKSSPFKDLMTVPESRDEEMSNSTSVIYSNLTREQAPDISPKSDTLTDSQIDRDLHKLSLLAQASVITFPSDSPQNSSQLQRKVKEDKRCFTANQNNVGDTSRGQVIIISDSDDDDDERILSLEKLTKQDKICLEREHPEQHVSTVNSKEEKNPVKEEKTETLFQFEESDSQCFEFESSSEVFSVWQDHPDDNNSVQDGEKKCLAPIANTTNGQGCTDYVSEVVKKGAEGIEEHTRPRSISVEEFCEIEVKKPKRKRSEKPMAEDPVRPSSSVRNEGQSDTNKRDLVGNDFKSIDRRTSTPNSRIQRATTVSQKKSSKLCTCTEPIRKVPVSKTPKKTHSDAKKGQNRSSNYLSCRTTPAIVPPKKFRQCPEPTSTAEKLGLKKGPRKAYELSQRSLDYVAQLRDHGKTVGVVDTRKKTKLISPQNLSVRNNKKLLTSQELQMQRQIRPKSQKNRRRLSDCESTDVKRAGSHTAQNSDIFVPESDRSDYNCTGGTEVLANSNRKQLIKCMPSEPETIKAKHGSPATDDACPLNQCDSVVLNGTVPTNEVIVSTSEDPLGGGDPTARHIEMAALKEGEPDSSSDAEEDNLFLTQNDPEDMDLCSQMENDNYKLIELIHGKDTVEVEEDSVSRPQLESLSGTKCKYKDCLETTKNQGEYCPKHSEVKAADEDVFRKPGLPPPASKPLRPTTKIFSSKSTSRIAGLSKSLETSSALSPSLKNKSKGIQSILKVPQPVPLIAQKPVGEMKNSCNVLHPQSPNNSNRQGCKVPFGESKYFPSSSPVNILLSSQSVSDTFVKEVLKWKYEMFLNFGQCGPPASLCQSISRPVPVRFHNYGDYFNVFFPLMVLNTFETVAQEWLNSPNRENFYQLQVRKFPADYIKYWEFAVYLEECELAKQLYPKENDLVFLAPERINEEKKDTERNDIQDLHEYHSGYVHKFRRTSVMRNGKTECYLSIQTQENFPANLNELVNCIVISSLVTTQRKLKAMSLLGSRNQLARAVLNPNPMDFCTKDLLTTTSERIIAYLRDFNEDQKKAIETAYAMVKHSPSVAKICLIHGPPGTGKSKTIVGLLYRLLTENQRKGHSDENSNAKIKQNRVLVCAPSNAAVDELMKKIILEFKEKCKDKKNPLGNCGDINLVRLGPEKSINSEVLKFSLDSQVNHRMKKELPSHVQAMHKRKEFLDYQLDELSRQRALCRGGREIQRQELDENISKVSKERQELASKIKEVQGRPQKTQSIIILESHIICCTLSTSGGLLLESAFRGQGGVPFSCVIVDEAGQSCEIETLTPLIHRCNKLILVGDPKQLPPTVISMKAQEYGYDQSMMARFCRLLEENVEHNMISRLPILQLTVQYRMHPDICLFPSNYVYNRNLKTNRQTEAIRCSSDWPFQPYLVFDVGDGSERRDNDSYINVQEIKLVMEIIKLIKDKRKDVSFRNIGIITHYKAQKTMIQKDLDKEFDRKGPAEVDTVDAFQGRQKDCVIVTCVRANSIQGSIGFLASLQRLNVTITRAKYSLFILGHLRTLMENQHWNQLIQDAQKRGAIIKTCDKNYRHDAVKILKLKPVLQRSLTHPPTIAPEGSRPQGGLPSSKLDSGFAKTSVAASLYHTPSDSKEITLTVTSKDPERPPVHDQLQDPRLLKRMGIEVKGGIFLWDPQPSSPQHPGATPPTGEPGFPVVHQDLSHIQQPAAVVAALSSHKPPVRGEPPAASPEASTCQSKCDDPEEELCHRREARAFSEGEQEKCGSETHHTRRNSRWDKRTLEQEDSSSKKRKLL
UniProt Q12888: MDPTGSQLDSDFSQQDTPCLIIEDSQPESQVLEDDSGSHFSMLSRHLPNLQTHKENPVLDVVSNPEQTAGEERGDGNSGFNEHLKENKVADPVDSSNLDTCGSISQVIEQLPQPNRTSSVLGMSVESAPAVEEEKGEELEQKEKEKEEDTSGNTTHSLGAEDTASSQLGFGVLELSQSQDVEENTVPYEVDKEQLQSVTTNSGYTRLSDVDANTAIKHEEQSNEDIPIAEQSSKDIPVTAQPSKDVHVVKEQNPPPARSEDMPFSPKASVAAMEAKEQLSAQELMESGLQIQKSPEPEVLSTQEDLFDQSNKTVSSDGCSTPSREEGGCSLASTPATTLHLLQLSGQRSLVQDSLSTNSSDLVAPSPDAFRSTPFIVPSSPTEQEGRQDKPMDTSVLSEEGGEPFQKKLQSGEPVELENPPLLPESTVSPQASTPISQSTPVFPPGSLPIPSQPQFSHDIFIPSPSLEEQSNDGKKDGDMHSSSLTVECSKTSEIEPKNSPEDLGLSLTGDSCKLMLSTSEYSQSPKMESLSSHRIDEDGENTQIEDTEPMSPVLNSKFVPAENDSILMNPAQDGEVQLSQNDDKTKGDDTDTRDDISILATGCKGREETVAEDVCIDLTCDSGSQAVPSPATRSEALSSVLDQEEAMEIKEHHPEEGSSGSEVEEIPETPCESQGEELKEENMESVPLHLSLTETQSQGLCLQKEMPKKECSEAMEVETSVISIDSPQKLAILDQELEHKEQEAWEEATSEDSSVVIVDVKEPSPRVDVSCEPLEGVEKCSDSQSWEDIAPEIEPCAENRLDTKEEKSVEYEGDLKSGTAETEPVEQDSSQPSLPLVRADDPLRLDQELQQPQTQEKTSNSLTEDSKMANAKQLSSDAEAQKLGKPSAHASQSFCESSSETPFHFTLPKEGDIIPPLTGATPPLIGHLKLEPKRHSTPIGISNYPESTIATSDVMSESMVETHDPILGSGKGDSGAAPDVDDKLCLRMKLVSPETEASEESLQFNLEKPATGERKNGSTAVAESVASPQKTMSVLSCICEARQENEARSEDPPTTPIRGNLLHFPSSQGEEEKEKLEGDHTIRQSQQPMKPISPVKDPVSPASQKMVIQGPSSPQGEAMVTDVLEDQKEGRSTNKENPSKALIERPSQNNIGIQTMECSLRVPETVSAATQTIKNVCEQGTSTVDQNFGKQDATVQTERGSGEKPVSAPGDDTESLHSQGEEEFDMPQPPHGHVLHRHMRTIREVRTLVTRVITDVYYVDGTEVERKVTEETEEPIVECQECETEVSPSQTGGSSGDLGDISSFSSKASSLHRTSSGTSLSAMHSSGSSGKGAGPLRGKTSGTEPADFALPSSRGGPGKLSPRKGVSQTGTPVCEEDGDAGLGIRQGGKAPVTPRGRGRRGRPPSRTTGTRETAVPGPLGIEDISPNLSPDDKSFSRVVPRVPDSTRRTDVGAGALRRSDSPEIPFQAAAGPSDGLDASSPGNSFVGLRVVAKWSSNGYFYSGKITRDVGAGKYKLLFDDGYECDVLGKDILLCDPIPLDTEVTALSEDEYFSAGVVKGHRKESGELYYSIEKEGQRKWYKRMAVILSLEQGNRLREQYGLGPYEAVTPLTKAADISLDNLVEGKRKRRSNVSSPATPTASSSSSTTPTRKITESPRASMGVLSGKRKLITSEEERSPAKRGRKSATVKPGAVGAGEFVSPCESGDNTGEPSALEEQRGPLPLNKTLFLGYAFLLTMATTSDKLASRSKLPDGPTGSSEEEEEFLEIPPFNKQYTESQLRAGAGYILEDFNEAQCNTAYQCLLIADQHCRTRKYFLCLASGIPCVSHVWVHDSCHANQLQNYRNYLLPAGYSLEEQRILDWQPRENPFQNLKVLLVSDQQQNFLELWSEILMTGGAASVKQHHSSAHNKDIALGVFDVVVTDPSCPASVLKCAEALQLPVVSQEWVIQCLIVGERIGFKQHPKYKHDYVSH

Biological target: Senataxin (human (endogenous in PBMCs)) (UniProt Q7Z333)
Assay: co-IP

Substance: Tumor Suppressor p53-Binding Protein 1 (from UniProt Q12888 1-1972)
- binding: binds
